# Assay results taken from patent USRE35517E, “Method, compositions, and compounds for modulating brain excitability” (priority 1992, dated 1997).
# Test system: GABA/benzodiazepine receptor-chloride ionopore complex (GBR complex)
# Test: Dissociation kinetics of [35S]TBPS in rat cerebral cortical membranes
# Assay type: binding
# Protocol: An assay was performed to determine the effect of pentobarbital on the dissociation kinetics of [^35 S]TBPS in rat cerebral cortical membranes. This assay was performed in accordance with the procedures outlined above. […] Dissociation of bound [^35 ]TBPS was initiated by 2 micromolar TBPS in all cases.
# [1] = [35S]TBPS dissociation, rat cortex, 30 nM Na pentobarbital, 300 nM alphaxalone, 20 nM a-OH-DHP
# [2] = [35S]TBPS dissociation, rat cortex, Na pentobarbital, 300 nM alphaxalone, 20 nM a-OH-DHP
structure (smiles),measurement,setting,value
"CC(=O)[C@H]1CC[C@H]2[C@@H]3CC[C@H]4C[C@H](O)CC[C@]4(C)[C@H]3C(=O)C[C@]12C [ALPHAXALONE, 5α-PREGNAN-3α-OL-11.20-DIONE]",biphasic dissociation mechanism of [35S]TBPS,"FIGS. 2A, 2B, pentobarbital 30 micromolar, alphaxalone 300 nanomolar, 5-alpha-pregnan-3-alpha-hydroxy-20-one 20 nanomolar",absent
same,"t1/2, R (rapidly dissociating component)",[1],4.9 ± 1
same,"t1/2, S (slowly dissociating component)",[1],67 ± 12
same,"k-1, R (rapidly dissociating component)",[2],0.180 ± 0.040 min⁻¹
same,"k-1, S (slowly dissociating component)",[2],0.0120 ± 0.003 min⁻¹
same,"Total percentage of specific sites, R","rapidly dissociating component, Na pentobarbital (**P < 0.01 vs control), 300 nM alphaxalone, 20 nM a-OH-DHP",34 ± 5%
same,influence on the dissociation kinetics of [35S]TBPS binding,rat cerebral cortex,do not influence the dissociation kinetics
same,"Total percentage of specific sites, S","slowly dissociating component, Na pentobarbital (*P < 0.05 vs control), 300 nM alphaxalone, 20 nM a-OH-DHP",73 ± 4%
